Results taken from patent US8518959B2, “Quinoxaline derivatives as antitumor agents” (Prolexys Pharmaceuticals, Inc., priority 2005, dated 2013).

Each compound was assayed on engineered cell lines (assay: Selectivity ratios for each subsequent pair of engineered cell lines). Conditions: from selectivity ratios of subsequent pairs of cell lines.
Format: cell-based, human

| SMILES | Genetic Basis of Selectivity |
| --- | --- |
| COc1cccc2c1C(=O)c1c(O)c3c(c(O)c1C2=O)C[C@@](O)(C(C)=O)C[C@@H]3O[C@H]1C[C@H](N)[C@H](O)[C@H](C)O1 [Daunorubicin] | TERT/RB |
| COc1cccc2c1C(=O)c1c(O)c3c(c(O)c1C2=O)C[C@@](O)(C(=O)CO)C[C@@H]3O[C@H]1C[C@H](N)[C@H](O)[C@H](C)O1 [Doxorubicin] | TERT/RB |
| O=C1c2c(O)ccc(O)c2C(=O)c2c(NCCNCCO)ccc(NCCNCCO)c21 [Mitoxantrone] | TERT/RB |

No dose or concentration is given here for some results.
